# According to patent publication US20210205462A1, “Translocation into Eukaryotic Cells” (The University Court of the University of Aberdeen, priority 2018, published 2021):
# At least one structure is not confirmed: it was looked up by name or label, or the drawing left a doubt.
# System: human A549 cells
# Assay: Inhibitor studies of SpHtp1^24-68-mRFP translocation into A549 cells
# Type: cell-based
# Protocol: Cell culture maintenance of human A549 cell, was done according to the manufacturer's or publisher's instructions. DMEM medium was supplemented with 10% FBS, 100 units/ml Penicillin and 100 μg/ml Streptomycin. Wells containing cover slips with attached cells of 80% confluent were washed 2× with HBSS before the translocation experiments.
# For the inhibitor studies, A549 cells were pre-incubated with different concentrations of SCH-202676 (allosteric inhibitor via disulfhydryl group) as indicated for 1 h at 37° C. and after this incubated for another 1 h at 37° C. with 3 μM SpHtp1^24-68-mRPF.
# After incubation human as well as fish cells were washed 3× with HBSS and fixed with 4% ice-cold PFA in PBST (PBS+0.1% tween) for 15 min at RT. Residual PFA was removed with 5× washing steps with PBS. Cells were mounted with Vectashield with DAPI. Samples were analysed by a Zeiss LSM710 confocal microscope or an epifluorescence microscope (Zeiss Imager M2 with metal halide light source). For quantification mean intensity or vesicles per cell were counted with ImageJ. A maximum of 5 cells were analysed from the same picture. Bars denote s.e.m of 50 cells counted per sample.
smiles,measurement,value
CC(=O)OCC[N+](C)(C)C [acetylcholine],effect of endogenous receptor ligands on the uptake of SpHtp1,do not have an effect
